Reference: patent publication US20210017264A1 (SHANGHAI YILE BIOTECHNOLOGY, published 2021)
Results are given in words; binding and its absence hold for the method and conditions named. Some results given as binding are weak or reduced against the parent protein; the word gives no strength.

Tests used:
[1] = target: T1, human proBDNF protein (prokaryotically expressed, Example 1) (human) (UniProt P23560); assay: ELISA; 50 ng antigen coated, antibody at 1 ug/ml, HRP goat anti-mouse secondary, A405
T1 sequence (looked up): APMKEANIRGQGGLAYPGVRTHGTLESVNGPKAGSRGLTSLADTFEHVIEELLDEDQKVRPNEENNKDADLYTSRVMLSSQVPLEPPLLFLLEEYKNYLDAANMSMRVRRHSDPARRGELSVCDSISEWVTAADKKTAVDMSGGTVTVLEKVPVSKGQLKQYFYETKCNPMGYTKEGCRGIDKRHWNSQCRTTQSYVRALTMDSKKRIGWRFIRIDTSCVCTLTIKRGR

[2] = target: T1, human proBDNF protein (prokaryotically expressed, Example 1) (human); assay: ELISA; 50 ng antigen coated, HRP-labeled 2B11 at 1 ug/ml, A405
[3] = target: T2, prokaryotically expressed mouse proBDNF (purchased from Alomone Labs Corporation) (mouse) (UniProt P21237); assay: as above
T2 sequence (looked up): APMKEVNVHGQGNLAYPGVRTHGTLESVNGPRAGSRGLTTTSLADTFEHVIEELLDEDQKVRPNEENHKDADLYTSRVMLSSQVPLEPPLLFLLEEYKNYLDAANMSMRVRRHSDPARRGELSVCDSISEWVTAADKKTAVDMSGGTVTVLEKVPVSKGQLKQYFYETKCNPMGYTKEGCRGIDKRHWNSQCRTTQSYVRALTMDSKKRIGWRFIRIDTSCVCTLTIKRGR

Measured: binding

B1: anti-proBDNF monoclonal antibody 2B11 (antibody, human IgG1, kappa, V domains shown)
VH: EVKVVESGGGLVQPGGSLRLSCATSGFTFTDYYMSWVRQPPGKALEWLGFIRNKANGYTTEYSSSVKGRFTISRDNSQSILYLQMNTLRAEDSATYYCAITMDYWGQGTSVTVSS
VL: DIQMTQSPASLSASVGETVTITCRASGNIHNYLAWYQKKQGKSPHLLVYNAQTLADGVPSRFSGSASGTQYSLKIDSLQPEDFGSYYCQHFWSTPFTFGSGTKLEIKR
notes: also called murine monoclonal antibody 2B11; antibody secreted from clone 2B11
binds: all assays above
